Experimental findings from publication doi:10.1101/2020.01.21.914390 are described below.

The chains behind the UniProt entries cited, without tags or fusion partners.
UniProt O80340: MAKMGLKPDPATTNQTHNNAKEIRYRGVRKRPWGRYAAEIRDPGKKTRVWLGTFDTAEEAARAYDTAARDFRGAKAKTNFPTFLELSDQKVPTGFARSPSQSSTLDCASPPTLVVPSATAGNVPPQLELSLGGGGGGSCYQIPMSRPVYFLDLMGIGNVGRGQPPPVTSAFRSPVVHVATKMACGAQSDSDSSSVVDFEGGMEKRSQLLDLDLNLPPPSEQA
UniProt Q6R0C4: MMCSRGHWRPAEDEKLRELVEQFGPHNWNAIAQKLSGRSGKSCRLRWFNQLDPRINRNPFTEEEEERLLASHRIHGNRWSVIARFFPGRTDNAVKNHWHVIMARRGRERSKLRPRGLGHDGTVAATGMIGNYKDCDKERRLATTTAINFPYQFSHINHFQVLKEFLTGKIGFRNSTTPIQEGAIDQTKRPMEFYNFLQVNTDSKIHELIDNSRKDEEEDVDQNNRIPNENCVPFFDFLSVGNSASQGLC

Results are given in words; binding and its absence hold for the method and conditions named. In cells and extracts the contact can be indirect. Some results given as binding are weak or reduced against the parent protein; the word gives no strength.

For assay [1], the target named is Flag tagged ERF4 (Arabidopsis thaliana) (UniProt O80340). As to the kind of experiment: co-IP.
Assay [2] has as its target YN-MYB52 (Arabidopsis thaliana) (UniProt Q6R0C4). Put plainly: split reporter.

As for “Myc tagged MYB52 (from UniProt Q6R0C4 1-249)”, in assay [1], the binding result is reported as “binds”.
For the substance ERF4-YC (from UniProt O80340 1-222), the binding entry in assay [2] is “binds”.
